## Primary screen of a compound library

From ChEMBL document CHEMBL3988442, “University of Dundee, Small-Polar-MMV Screening Library” (2021).

Mtb heat-shock: 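Assay on Mycobacterium tuberculosis, filed only as a heat shock assay from Cornell; the read-out is not stated. The concentration is filed as 10 mM, unlikely as a test dose, so the dose is not known. The record gives no direction; compounds that gave an IC50 in retests scored well above the rest, so higher reads as stronger inhibition. About 69,000 compounds were tested under these conditions; 1.4% (about 930) showed 50% or more at least once.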
Mtb growth Cornell: 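Whole-cell assay for inhibitors of Mycobacterium tuberculosis growth, labelled Cornell in the record; the read-out is not stated. The concentration is filed as 10 mM, unlikely as a test dose, so the dose is not known. Higher means stronger inhibition (inferred from two other growth screens of the library). Size under these conditions: about 53,000 compounds, about 900 of them at 50% or above in at least one test.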

Values are the deposited “Percent Effect”, in %. The record does not define 0% and 100%; most values in the screen are far below 50% and negative numbers occur (in some assays of this library far below -100). This is an unselected part of the compounds tested. A dash means the value is not listed here; it may have been measured.

compound	Mtb heat-shock	Mtb growth Cornell
Cc1nccc(NCc2cc3n(n2)CCCN(S(C)(=O)=O)C3)n1	12.69%	-
Cc1ccc(C(=O)N2CCc3c(CNS(C)(=O)=O)cncc3C2)o1.Cl	-1.562%	21%
CC(C)c1nnc2n1CCN(C(=O)c1ccccc1OCC1CC1)C2	3.934%	4.825%
CNc1nc(CNC(=O)Nc2ccccc2C(F)(F)F)cs1	8.1%	-
CS(=O)(=O)N1CCc2[nH]nc(Cc3cccs3)c2C1	6.995%	16.91%
Cc1cn(-c2ccccc2)nc1NS(=O)(=O)c1ccc(C(=O)O)cc1F	17.88%	23.3%
Cc1cc(NC(=O)NCC2CCOC2)no1 (centres unmarked)	5.439%	-
COc1cc(Cl)cc(C(=O)N2CCC3(CC2)CNC(=O)C3)c1	-5.853%	22.28%
CC(C)C(C)(C#N)NC(=O)Cn1cc(C(N)=O)c(-c2ccccc2)n1 (centres unmarked)	-1.832%	-44.3%
CNC(=O)c1cc2c(nc1N(C)C)CCN(S(=O)(=O)C1CC1)CC2.O=C(O)C(F)(F)F	-7.978%	-15.75%
O=C1CCC2(CCCN(C(=O)Cc3ccccn3)C2)N1 (centres unmarked)	5.604%	-
CCc1cc(CNC(=O)N2CCC(Cc3cnn(C)c3)C2)on1 (centres unmarked)	10.49%	-
Nc1nonc1C(=O)N1Cc2ccccc2OC2(CCOCC2)C1	-5.298%	-22.02%
O=C1N(Cc2ccncc2)CCC12CCCNC2 (centres unmarked)	-2.805%	13.75%
Cc1nc(CN(C)Cc2csc(-c3cccs3)n2)co1	-19.46%	-
COc1ccc(C(C)Nc2cnn(C)c(=O)c2Cl)cc1OC (centres unmarked)	7.595%	14.06%
Cc1nnc(N2CCN(C)C3(CCC(=O)N(CCO)CC3)C2)s1 (centres unmarked)	-8.672%	-4.831%
FC(F)(F)Oc1ccc(-c2c[nH]c([C@@H]3COCCN3)n2)cc1	-0.2117%	17.65%
NC(=O)C1CCCN1C1CCN(C(=O)c2ccc3c(c2)OCO3)CC1 (centres unmarked)	3.37%	-17.21%
CCN(Cc1cnn(C)c1)C[C@H]1CC[C@@H](Cc2ccc(CO)cc2)O1	-9.998%	-8.964%
CN1CC(C(=O)NCc2ccc(OCc3cccnc3)cc2)CC1=O (centres unmarked)	-10.67%	-23.23%
CC1Cc2ccccc2N1Cc1occc1C(=O)OCC(N)=O (centres unmarked)	13.31%	46.11%
Cc1nc(N[C@H]2COC[C@@H]2N2CCCCC2)c2c(C)nn(C)c2n1	-4.182%	15.69%
Cl.OC[C@H]1CC[C@]2(CC1)CN(Cc1ccsc1)Cc1ccccc1O2	-24.97%	10.87%
Cc1ccc(C(C(=O)NCCc2nc(C)cc(C)n2)N(C)C)cc1 (centres unmarked)	9.639%	14.91%
O=C(O)C(F)(F)F.O=C(O)C(F)(F)F.O=C(c1ccnnc1)N1CCN(Cc2cccnc2)c2ncccc2C1	-4%	-24.68%
CN(C)CC1(O)CCN(C(=O)c2cnc(-c3cccnc3)nc2)C1 (centres unmarked)	-4.097%	-65.63%
N#Cc1cccc(S(=O)(=O)NC(=O)COc2ccc3c(c2)CCC3)c1	18.97%	-4.255%
O=C(NCc1ccc2c(c1)CCCO2)c1ccc(C2CCNC2)cc1 (centres unmarked)	-8.497%	5.953%
CN(CC1(O)CCCN(Cc2cccc(F)c2F)C1=O)C1CCCCC1 (centres unmarked)	-15.9%	-
CSc1ccc(CN2CCCC3(CNC(=O)c4ccccc4O3)C2)cc1 (centres unmarked)	0.5448%	22.01%
CN(C)c1ncc(CNC(=O)Nc2ccccc2F)n1C	-17.84%	3.186%
Cn1ncc2c(N3CCN(CCO)CC3)nc(C3CCCC3)nc21	-24.52%	32.14%
CS(=O)(=O)NCCCN1CCCC1c1ccsc1 (centres unmarked)	-4.125%	-
CCC(C)NC(=O)c1cc(Br)c2c(c1)OCCO2 (centres unmarked)	-7.04%	-5.193%
COc1cccc(CNc2cc(C)nc(-c3ccncc3)n2)c1OC	-5.229%	17.33%
O=C(O)C(F)(F)F.[H][C@]12C[C@H](C(=O)NC)N(C)[C@@]1([H])CN(S(=O)(=O)c1cccc(F)c1)C2	-26.32%	-0.2817%
O=C(c1cc(Cl)c2c(c1)OCO2)N1CCN(c2ccccn2)CC1	2.464%	14.6%
CC(C)CCn1ccc(NC(=O)N2CCCC2CN2CCOCC2)n1 (centres unmarked)	2.203%	-5.974%
CCN1CCCN(C(=O)c2ccc(NC(=O)CC(C)C)c(C)c2)CC1	11.1%	-3.009%
Cc1ncnc2c1CCN(C(=O)c1cccc(F)c1)CC2	-26.61%	-4.087%

3 of the entries, repeated:

CS(=O)(=O)NCCCN1CCCC1c1ccsc1 (centres unmarked) read Mtb heat-shock: -4.125%.
Cc1nc(N[C@H]2COC[C@@H]2N2CCCCC2)c2c(C)nn(C)c2n1 read Mtb heat-shock: -4.182%; Mtb growth Cornell: 15.69%.
CNc1nc(CNC(=O)Nc2ccccc2C(F)(F)F)cs1 read Mtb heat-shock: 8.1%.